Results are given in words; binding and its absence hold for the method and conditions named. Binding seen in cells or lysates may run through a third protein. Some results given as binding are weak or reduced against the parent protein; the word gives no strength.
Target: T1, endogenous RNF11 (murine primary cortical neurons) (mouse (endogenous in primary cortical neurons)) (UniProt Q9QYK7)
T1 sequence: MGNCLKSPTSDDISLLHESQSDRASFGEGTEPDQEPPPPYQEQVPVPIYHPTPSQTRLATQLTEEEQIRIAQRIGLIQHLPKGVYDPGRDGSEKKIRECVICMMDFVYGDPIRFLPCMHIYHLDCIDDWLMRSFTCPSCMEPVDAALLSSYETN
Assay: co-IP; lysates of murine primary cortical neurons stimulated with 10 ng/ml TNF-α for 0 or 30 minutes; IP with RNF11 antibody; control IP with antibody omitted; immunoblot with anti-A20 and Itch; densitometry normalised to input, 0 minutes set at 100%

B1: endogenous A20 (murine primary cortical neurons) (protein, UniProt Q60769 1-775)
chain: MAEQLLPQALYLSNMRKAVKIRERTPEDIFKPTNGIIYHFKTMHRYTLEMFRTCQFCPQFREIIHKALIDRSVQASLESQKKLNWCREVRKLVALKTNGDGNCLMHAACQYMWGVQDTDLVLRKALCSTLKETDTRNFKFRWQLESLKSQEFVETGLCYDTRNWNDEWDNLVKMASADTPAARSGLQYNSLEEIHIFVLSNILRRPIIVISDKMLRSLESGSNFAPLKVGGIYLPLHWPAQECYRYPIVLGYDSQHFVPLVTLKDSGPELRAVPLVNRDRGRFEDLKVHFLTDPENEMKEKLLKEYLIVMEIPVQGWDHGTTHLINAAKLDEANLPKEINLVDDYFELVQHEYKKWQENSDQARRAAHAQNPLEPSTPQLSLMDIKCETPNCPFFMSVNTQPLCHECSERRQKNQSKLPKLNSKLGPEGLPGVGLGSSNWSPEETAGGPHSAPPTAPSLFLFSETTAMKCRSPGCPFTLNVQHNGFCERCHARQINASHTADPGKCQACLQDVTRTFNGICSTCFKRTTAEPSSSLTSSIPASCHQRSKSDPSQLIQSLTPHSCHRTGNVSPSGCLSQAARTPGDRAGTSKCRKAGCMYFGTPENKGFCTLCFIEYRENKQSVTASEKAGSPAPRFQNNVPCLGRECGTLGSTMFEGYCQKCFIEAQNQRFHEARRTEEQLRSSQHRDMPRTTQVASRLKCARASCKNILACRSEELCMECQHLSQRVGSVAHRGEPTPEEPPKQRCRAPACDHFGNAKCNGYCNECYQFKQMYG
- binding: binds

Source: PMC3416671
